# Some of the results follow. Further columns of the screen follow, without active or inactive calls. The list favours compounds with an active or inconclusive main result. Words in brackets tell the shape of the fitted curve; partial curves, single points and poor fits give uncertain potencies.
# Assay: qHTS Assay for Lipid Storage Modulators in Drosophila S3 Cells;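 on cell number change: cells counted by Cell Tracker Red CMTPX staining in the red channel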
# Conditions: BODIPY lipid droplet fluorescence, 18-24 h; for cell number change: measured here: cell count max response, cells fed with added oleic acid
# Outline: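 Laser-scanning cytometry quantifies lipid droplet accumulation (500–530 nm total intensity; droplet/cell object ratio) in oleic acid-fed (400 uM added) Drosophila S3 cells treated with a concentration series. 20 uM Triacsin C defined 100% inhibition.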
# [1] = measured here: cell number channel AC50, cells fed with added oleic acid
# [2] = measured here: lipid fluorescence (Fed channel) AC50, cells fed with added oleic acid
Compound,cell number change [%],AC50 [1],AC50 [2]
COc1cccc(N(C(=O)CNC(=O)c2ccco2)C(C(=O)NC2CCCC2)c2ccco2)c1 (stereo not given),16.7,"0.058 µM [rising, full curve, poor fit]",–
COc1ccc(CCNC(=O)C(=O)c2c[nH]c3ccccc23)cc1OC,-4.95,–,"29.1 µM [rising, single point]"
O=c1[nH]c2ccccc2n1CCCN1CCCCC1,-11.7,–,"6.51 µM [falling, single point]"
COc1ccc(C(=O)/C=C/N2CCCCC2)cc1OC,11.2,–,"2.06 µM [rising, full curve, poor fit]"
O=S(=O)(c1ccc2c(c1)CCCN2)N1CCCCC1,-3.03,–,"0.082 µM [rising, partial curve, poor fit]"
CC(=O)Nc1ccc(-c2csc(NNC(=O)c3ccc(C)cc3)n2)cc1,-11.9,"0.0651 µM [falling, full curve, poor fit]",–
CCCOc1ccc(CNC(=O)c2ccc3c(c2)N(CC)CCS3)cc1,-33.7,"18.4 µM [falling, single point]","13 µM [falling, partial curve]"
CCOc1nc(Nc2ccc(OC)c(Cl)c2)nc(N2CCN(c3ccc(OC)cc3)CC2)n1,7.44,"1.64 µM [rising, partial curve]","0.731 µM [rising, full curve]"
C/C(=N\NC(=O)c1cnccn1)c1ccc([N+](=O)[O-])cc1,16.1,"0.461 µM [falling, single point]",–
COc1cc(C2C(C(=O)C(C)(C)C)=C(O)C(=O)N2Cc2ccccc2)ccc1O (stereo not given),-25.6,–,–
CC(=O)N1CCc2cc(S(=O)(=O)N3CCc4ccccc4C3)ccc21,49.3,"4.11 µM [rising, partial curve]",–
S=c1[nH]nc(-c2ccc3ccccc3n2)n1-c1ccc2ncccc2c1,14.1,–,"1.64 µM [rising, partial curve]"
COc1ccc(OCC(=O)NNC(=S)NC(=O)C2CCCCC2)cc1,16.8,–,–
C/C(=N\NC(=O)c1c[nH]c2ccccc12)c1ccc(C)s1,26.3,–,–
Cc1ccc(S(=O)(=O)CCC(=O)OCC(=O)Nc2cc(S(=O)(=O)N3CCOCC3)ccc2C)cc1,1.18,–,"29.1 µM [falling, single point]"
O=C(CSc1nccn1Cc1ccccc1)NCc1ccccc1,59.2,"20.6 µM [rising, single point]",–
CCOc1ccccc1NC(=O)C1CCN(S(C)(=O)=O)CC1,-10.9,–,–
CCOC(=O)C1CCN(C(=O)C2(NC(=O)Nc3ccc(F)cc3F)CCCCC2)CC1,-10.9,–,–
CC1CCCCC1NC(=O)c1cncc(Br)c1 (stereo not given),–,–,"23.1 µM [rising, single point]"
Cc1ccc(S(=O)(=O)N2CCOCC2)cc1C(=O)NCC1CCCCC1,2.24,–,"29.1 µM [falling, single point]"
COCCN(C(=O)COC(=O)CCOc1ccccc1C)c1c(N)n(Cc2ccccc2)c(=O)[nH]c1=O,0.0963,–,"23.1 µM [falling, partial curve, poor fit]"

# Four compounds already listed, ordered by formula weight, largest number first.
Compound,cell number change [%],AC50 [1],AC50 [2]
COCCN(C(=O)COC(=O)CCOc1ccccc1C)c1c(N)n(Cc2ccccc2)c(=O)[nH]c1=O,0.0963,–,"23.1 µM [falling, partial curve, poor fit]"
COc1cccc(N(C(=O)CNC(=O)c2ccco2)C(C(=O)NC2CCCC2)c2ccco2)c1 (stereo not given),16.7,"0.058 µM [rising, full curve, poor fit]",–
COc1cc(C2C(C(=O)C(C)(C)C)=C(O)C(=O)N2Cc2ccccc2)ccc1O (stereo not given),-25.6,–,–
C/C(=N\NC(=O)c1cnccn1)c1ccc([N+](=O)[O-])cc1,16.1,"0.461 µM [falling, single point]",–

# Carrying on:

Compound,cell number change [%],AC50 [1],AC50 [2]
Cc1ccc(Cn2ccc(=O)c(OCc3c(Cl)cccc3Cl)c2C)cc1,-72.7,"16.4 µM [falling, partial curve]","0.184 µM [falling, full curve, poor fit]"
N#Cc1ccc(N2Cc3ccccc3/C2=N/C(=O)Nc2ccc(Cl)cc2)cc1,83.3,"6.51 µM [falling, single point]","20.6 µM [rising, partial curve]"
O=C1C2CCCN2C(c2ccc(Br)cc2)N1c1ccc(F)cc1 (stereo not given),11.3,–,–
CCN(CC)c1nc2c(c(=O)[nH]c(=O)n2C)n1CCCc1ccccc1,-21.7,–,"0.164 µM [rising, full curve, poor fit]"
CN1C(=O)c2ccc(NC(=O)C3CCCCC3)cc2C1=O,3.33,–,"4.11 µM [rising, full curve]"
COc1cc2cc(CCCOC(=O)c3ccc(F)cc3)oc(=O)c2cc1OC,-30.7,"2.59 µM [falling, single point]","0.92 µM [falling, partial curve]"
CCCNC(=O)c1oc2ccc3c(c2c1C)C(=O)CC(C)(C)O3,–,"0.58 µM [rising, full curve]",–
COc1ccccc1-n1c(SC)nc(O)cc1=O,36.2,"5.17 µM [rising, full curve, poor fit]",–
CC(=O)Nc1ccc(S(=O)(=O)Nc2ccccc2C(=O)N2CCCCC2)cc1,-10.3,–,"7.31 µM [falling, partial curve, poor fit]"
Cc1ccccc1C(=O)OC1CCN(C)CC1,12.9,–,"6.51 µM [falling, single point]"
Cc1ccc(NC(=O)CN2C(=O)c3ccccc3S2(=O)=O)cc1C,-15.8,–,–
NC(=S)c1cc2ccc(O)cc2oc1=O,2,"0.00517 µM [falling, full curve, poor fit]","3.26 µM [falling, single point]"
CN(CC(=O)Nc1ccccc1C(F)(F)F)C(=O)CCc1nc2ccccc2c(=O)[nH]1,35.8,"0.517 µM [rising, full curve]","0.461 µM [rising, full curve]"
Cc1cccc(C)c1NC(=O)CSc1nnc(C)c(=O)[nH]1,-6.34,"0.58 µM [falling, single point]",–
O=[N+]([O-])c1cccc(-c2cn3nc(-c4ccccc4)c(-c4ccccc4)nc3n2)c1,-40.6,"4.61 µM [falling, full curve]","5.8 µM [falling, full curve]"
COc1ccc(C)cc1S(=O)(=O)N(CC(=O)O)c1ccc(F)cc1,-4.35,–,"0.461 µM [rising, full curve]"
COc1ccccc1NS(=O)(=O)c1ccc(NC(=O)c2ccccn2)cc1,102,"3.66 µM [rising, partial curve]",–
Cc1ccc(NC(=O)COC(=O)CNC(=O)c2ccc(C)s2)cc1,-2.58,–,–
Cc1cc(C)n(-c2cc(N3CCOCC3)nc(-c3ccccc3)n2)n1,–,–,"6.51 µM [rising, single point]"
C/C(=N\NC(=O)Cc1c[nH]c2ccccc12)c1ccc2ccccc2c1,-6.33,–,–
CN(CC(=O)NC1CCCCC1)S(=O)(=O)c1ccc2c(c1)c(=O)n(C)c(=O)n2C,11.2,–,"0.164 µM [rising, single point]"

Compound,cell number change [%],AC50 [1],AC50 [2]
Cc1csc(NC(=O)Cn2cnnn2)n1,4.26,–,"4.61 µM [rising, full curve]"
COC(=O)/C(=N/Nc1ccccc1C)Sc1nnc(C(O)c2ccccc2)n1-c1ccccc1 (stereo not given),-0.746,–,–
CN(C(=O)COC(=O)c1ccc(S(=O)(=O)N2CCCC2)cc1)c1ccccc1,–,"0.58 µM [rising, single point]",–
OCCC1CN(CCCc2ccccc2)CCN1Cc1ccc(F)cc1 (stereo not given),21.3,–,"23.1 µM [falling, single point]"
CCOc1ccc(-c2cnc(NCc3cccc4ccccc34)n2CCOC)cc1,-53.3,"14.6 µM [falling, partial curve, poor fit]","29.1 µM [falling, single point]"
CCCCCn1c(-c2ccco2)nc2nc3ccccc3nc21,-73.1,"18.4 µM [falling, single point]","0.58 µM [rising, single point]"
OCCNCc1cccc(Br)c1,-18.5,–,–
CCCc1cc(=O)oc2c(C)c(OCC(=O)NCc3ccccn3)ccc12,-42,"0.00731 µM [falling, full curve, poor fit]","16.4 µM [falling, partial curve]"
Cc1ccc(C)c(OCC(=O)Nc2ccc(S(=O)(=O)Nc3onc(C)c3C)cc2)c1,10,–,"6.51 µM [falling, single point]"
Cc1onc(-c2ccccc2Cl)c1C(=O)NCC(=O)O,-2.73,–,"4.61 µM [falling, single point]"
CCCCNC(=O)c1ccc2c(=O)n(CCCOCC)c(=S)[nH]c2c1,36.8,"0.82 µM [rising, full curve]","1.64 µM [rising, full curve]"
CC(=O)Nc1ccc(S(=O)(=O)NNc2cccc(C)c2)cc1,17.9,–,"29.1 µM [rising, single point]"
COC(=O)/C=C/c1cnc2ccccc2c1,1.03,–,–
CC(C)(C#CC(O)(c1ccccc1)c1ccccc1)N1CCCC1,-9.9,–,–
Cc1ccc(NC(=O)/C(Cl)=C/c2ccccc2)cc1C,21.8,–,"11.6 µM [rising, partial curve]"
COc1ccccc1C(=O)NCCC(=O)NC(C)c1ccc(-n2ccnc2)cc1 (stereo not given),94,"9.2 µM [rising, partial curve]",–
Cc1cc(Cl)c2c(c1)[C@]1(C(=O)N2)[C@@H]2C(=O)N(Cc3ccccc3)C(=O)[C@@H]2[C@@H]2CCCN21,12.9,"0.92 µM [rising, partial curve]",–
O=[N+]([O-])c1ccc(/C=N/Nc2nc(N3CCCC3)nc(N3CCCC3)n2)o1,39.6,"32.6 µM [rising, single point]",–
CCOc1ccc2ccccc2c1/C=N/NC(=O)CC1(C)OCCCO1,–,"1.46 µM [rising, partial curve]","1.46 µM [rising, partial curve]"
CCCCN(C(=O)C1=COCCO1)c1c(N)n(CCCC)c(=O)[nH]c1=O,-46.3,"11.6 µM [falling, partial curve, poor fit]","29.1 µM [falling, single point]"

# From PubChem BioAssay AID2685 (National Center for Advancing Translational Sciences (NCATS), 2010)
